Values quoted from earlier work in US20240342179A1, “TREATMENT OF CANCERS OR NEOPLASMS BY INHIBITING KIF15” (University of Kansas, priority 2023, published 2024).
At least one structure is not confirmed: it was looked up by name or label, or the drawing left a doubt.

Chains of the proteins cited; added tags and fusions are not shown. Lines headed by an entry give the natural chain unless they say otherwise; changes in a name come on top.
UniProt Q9NS87: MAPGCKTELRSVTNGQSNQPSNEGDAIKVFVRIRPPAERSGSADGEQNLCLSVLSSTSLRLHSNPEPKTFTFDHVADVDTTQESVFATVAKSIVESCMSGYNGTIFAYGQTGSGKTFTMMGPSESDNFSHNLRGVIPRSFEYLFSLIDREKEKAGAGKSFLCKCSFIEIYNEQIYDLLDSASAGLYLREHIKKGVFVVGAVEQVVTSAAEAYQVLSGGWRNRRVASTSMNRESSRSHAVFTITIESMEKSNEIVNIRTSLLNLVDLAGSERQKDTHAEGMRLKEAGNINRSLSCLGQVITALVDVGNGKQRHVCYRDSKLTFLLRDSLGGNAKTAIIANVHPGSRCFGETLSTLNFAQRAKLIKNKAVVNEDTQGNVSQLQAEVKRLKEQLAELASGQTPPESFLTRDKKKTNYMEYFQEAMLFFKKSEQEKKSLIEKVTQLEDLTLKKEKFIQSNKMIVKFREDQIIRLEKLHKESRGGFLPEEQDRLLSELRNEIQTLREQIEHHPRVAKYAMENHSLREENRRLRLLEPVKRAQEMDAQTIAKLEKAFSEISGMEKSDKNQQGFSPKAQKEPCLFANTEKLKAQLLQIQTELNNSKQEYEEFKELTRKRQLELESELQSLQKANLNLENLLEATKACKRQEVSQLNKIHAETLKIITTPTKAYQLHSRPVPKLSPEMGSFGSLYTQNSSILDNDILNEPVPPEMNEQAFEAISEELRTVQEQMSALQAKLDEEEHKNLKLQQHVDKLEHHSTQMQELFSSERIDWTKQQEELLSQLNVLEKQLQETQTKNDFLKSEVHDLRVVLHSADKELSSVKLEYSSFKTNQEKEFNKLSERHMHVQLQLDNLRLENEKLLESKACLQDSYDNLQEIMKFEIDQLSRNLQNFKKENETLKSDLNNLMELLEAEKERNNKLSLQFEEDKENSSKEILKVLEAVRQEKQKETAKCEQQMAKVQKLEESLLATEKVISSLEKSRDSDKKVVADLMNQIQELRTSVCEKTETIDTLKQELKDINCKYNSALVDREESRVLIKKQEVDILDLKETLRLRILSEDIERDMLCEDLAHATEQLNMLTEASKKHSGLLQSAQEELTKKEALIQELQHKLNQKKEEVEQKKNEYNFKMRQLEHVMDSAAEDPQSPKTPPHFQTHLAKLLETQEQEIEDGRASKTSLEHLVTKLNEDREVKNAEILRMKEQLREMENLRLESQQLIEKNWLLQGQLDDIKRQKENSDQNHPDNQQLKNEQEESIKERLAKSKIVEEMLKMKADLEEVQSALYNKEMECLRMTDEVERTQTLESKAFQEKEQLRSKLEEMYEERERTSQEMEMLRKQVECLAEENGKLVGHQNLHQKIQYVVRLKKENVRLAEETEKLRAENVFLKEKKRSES

Target: KIF15 (Homo sapiens (Human), UniProt Q9NS87)
Conditions: range printed with mixed units nM to μM; cited from earlier work

Question: With `CCOC(=O)c1sc(NC(=O)[C@H](C(C)C)n2c(=O)[nH]c3ccccc3c2=O)nc1C` [KIF15-IN-1] as the molecule, how does the median inhibitory concentration read?
Answer: 200 to 1700 nM
